# From the odorant receptor screen of Mainland et al. (2015)
# Chains of the proteins cited; added tags and fusions are not shown. Chains listed by the source or under a name are the forms on record and can include a tag or linker.
# OR4F14 A297T, as listed by the source, stated change not applied: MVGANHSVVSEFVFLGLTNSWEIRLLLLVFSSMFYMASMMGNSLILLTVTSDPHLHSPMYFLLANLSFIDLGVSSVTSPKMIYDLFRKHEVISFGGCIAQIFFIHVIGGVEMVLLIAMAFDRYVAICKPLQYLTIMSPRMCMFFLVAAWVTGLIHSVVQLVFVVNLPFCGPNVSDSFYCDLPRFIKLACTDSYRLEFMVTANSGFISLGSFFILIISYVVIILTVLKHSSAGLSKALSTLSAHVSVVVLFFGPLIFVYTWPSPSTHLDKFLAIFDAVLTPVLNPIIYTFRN
# “And” between values parts separate entries of the source, which are not always exact repeats. Equal entries are not always repeated. This is one part of the list. Each value is one well over the wells without odorant, computed here; the data are noisy.
# Experiments:
# Assay in all cases: odorant receptor activation (CRE luciferase / Renilla) (fold of no-odor wells); higher = more activation
# Details in all cases: 100 µM
# OR4D1 R54Q clone 1467 = system: OR4D1 R54Q clone 1467
# OR4D1 clone 1316 = system: OR4D1 clone 1316
# OR4D10 clone 1174 = system: OR4D10 clone 1174
# OR4D11 clone 1243 = system: OR4D11 clone 1243
# [1] = system: OR4D2 C97S/L187F clone 1285
# OR4D5 clone 1122 = system: OR4D5 clone 1122
# OR4D6 D96G clone 1225 = system: OR4D6 D96G clone 1225
# OR4D9 clone 1217 = system: OR4D9 clone 1217
# [2] = system: OR4E2 V118M/Q234R clone 1274
# OR4F14 A297T clone 1059 = system: OR4F14 A297T clone 1059
SMILES,odorant receptor activation (OR4D1 R54Q clone 1467),odorant receptor activation (OR4D1 clone 1316),odorant receptor activation (OR4D10 clone 1174),odorant receptor activation (OR4D11 clone 1243),odorant receptor activation [1],odorant receptor activation (OR4D5 clone 1122),odorant receptor activation (OR4D6 D96G clone 1225),odorant receptor activation (OR4D9 clone 1217),odorant receptor activation [2],odorant receptor activation (OR4F14 A297T clone 1059)
CCCCCCCCOC(C)=O [octyl acetate],1.28,0.971,0.813,1.04,0.936,0.854,0.841,1.09,1.43,0.964
CC(C)C=O [isobutyraldehyde],0.996 and 1.13,1.04 and 0.796,1.17,0.896 and 0.833,0.721 and 1.32,0.772,1.13,1.32,1.15 and 0.681,2.02
CCC1(O)C2(C)CCC(C2)C1(C)C (centres undefined) [2-ethylfenchol],1.07,0.792,1.11,1.42,1,0.805,0.681,0.935,0.685,4.54
CC(C)C(=O)O [isobutyric acid],1.15 and 0.998,1.09 and 0.707,1.1,1.35 and 1.07,0.756 and 1.35,0.946,1.14,1.21,1.32 and 0.933,0.76
CC12CCC(CC1)C(C)(C)O2 [cineole],0.943,0.967,0.941,0.981,0.988,1.11,0.64,0.834,1.38,0.803
O=C1CCCCCCCCCCCC(=O)OCCO1 [ethylene brassylate],1.78,1.52,1.75,1.69,1.53,1.08,1.46,1.55,1.52,1.52
CC1=CCC(C(C)(C)O)CC1 (centres undefined) [terpineol],0.725,0.909,0.978,0.891,0.786,0.946,1.73,1.31,1.13,1.03
CCCCCCCC=CC=O [2-decenal],2.23,1.23,1.06,1.89,2.56,1.22,0.795,0.712,1.19,10.1
O=CCc1ccccc1 [phenyl acetaldehyde],1.43,1.4,0.876,1.04,0.888,1.45,1.33,1.21,1.43,1.42
CCCCCCCC=O [octyl aldehyde],1.42,0.881,0.863,1.04,1.08,0.792,0.834,1.02,1.32,1
CCCCCCCOC(C)=O [heptyl acetate],0.84 and 1.37,1.22 and 0.856,0.956,1.16 and 0.783,0.878 and 1.21,1.19,0.935,0.883,1.23 and 1.4,0.951
C=CC(C)(O)CCC=C(C)C (centres undefined) [linalool],1.55,0.779,0.816,0.942,1.12,0.97,0.871,1.02,1.09,0.991
CC/C=C\CCO [cis-3-hexen-1-ol],0.985,0.888,1.16,1.01,0.9,1.2,0.969,0.921,1.15,1.21
COc1cc(C)ccc1O [2-methoxy-4-methylphenol],0.683,1,1.21,0.834,0.998,0.839,0.852,1.15,0.925,1.62
CC12CCC(C1)C(C)(C)C2=O (centres undefined) [fenchone],1.18,0.867,0.816,1.02,1.09,1.52,1.14,0.798,1.01,0.878
CC(=O)OC1CC2CCC1(C)C2(C)C (centres undefined) [isobornyl acetate],1.04 and 1.19,1.03 and 0.852,0.997,0.959 and 0.988,0.647 and 1.55,0.862,0.989,0.915,1.63 and 0.968,0.787
CCCCO [1-butanol],1.2,1.12,1.03,1.3,1.18,0.782,0.787,0.955,0.857,3.45
CC(=O)OC(C)(C)C1CC=C(C)CC1 (centres undefined) [terpinyl acetate],0.88,0.829,1.24,0.894,0.709,1,1.63,1.79,0.912,1.42
C=CCc1ccc(OC(C)=O)c(OC)c1 [eugenol acetate],2.12,1.84,1.54,1.52,1.87,1.38,1.5,1.36,1.75,1.65

# 4 entries from above, with bars between the fields:
SMILES | odorant receptor activation (OR4D1 R54Q clone 1467) | odorant receptor activation (OR4D1 clone 1316) | odorant receptor activation (OR4D10 clone 1174) | odorant receptor activation (OR4D11 clone 1243) | odorant receptor activation [1] | odorant receptor activation (OR4D5 clone 1122) | odorant receptor activation (OR4D6 D96G clone 1225) | odorant receptor activation (OR4D9 clone 1217) | odorant receptor activation [2] | odorant receptor activation (OR4F14 A297T clone 1059)
CCCCCCCC=O [octyl aldehyde] | 1.42 | 0.881 | 0.863 | 1.04 | 1.08 | 0.792 | 0.834 | 1.02 | 1.32 | 1
CCCCCCCOC(C)=O [heptyl acetate] | 0.84 and 1.37 | 1.22 and 0.856 | 0.956 | 1.16 and 0.783 | 0.878 and 1.21 | 1.19 | 0.935 | 0.883 | 1.23 and 1.4 | 0.951
C=CC(C)(O)CCC=C(C)C (centres undefined) [linalool] | 1.55 | 0.779 | 0.816 | 0.942 | 1.12 | 0.97 | 0.871 | 1.02 | 1.09 | 0.991
CC/C=C\CCO [cis-3-hexen-1-ol] | 0.985 | 0.888 | 1.16 | 1.01 | 0.9 | 1.2 | 0.969 | 0.921 | 1.15 | 1.21

# Next entries follow.

SMILES,odorant receptor activation (OR4D1 R54Q clone 1467),odorant receptor activation (OR4D1 clone 1316),odorant receptor activation (OR4D10 clone 1174),odorant receptor activation (OR4D11 clone 1243),odorant receptor activation [1],odorant receptor activation (OR4D5 clone 1122),odorant receptor activation (OR4D6 D96G clone 1225),odorant receptor activation (OR4D9 clone 1217),odorant receptor activation [2],odorant receptor activation (OR4F14 A297T clone 1059)
CCCCCC(=O)O [caproic acid],1.08,0.921,1.13,0.727,0.943,0.884,1.09,1.03,1.22,0.863
COc1cc(C=O)ccc1O [vanillin],0.97,1.04,1.05,0.932,0.869,1.22,1.26,1.28,1.3,0.904
"CC1CCC(C(C)C)C(O)C1 (single isomer, unassigned; (-)) [(-)-menthol]",4.46,0.846,1.16,0.634,0.882,0.827,0.785,1.16,0.719,4.1
COc1ccccc1O [guaiacol],0.984 and 1.21,1.25 and 0.697,1.07,1.31 and 0.983,0.727 and 1.32,1.38,1.29,0.816,1.19,1.27
CCCCCCOC(=O)CCC [hexyl butyrate],0.959 and 0.953,1.18 and 0.722,1.21,1.23 and 1.18,0.807 and 1.47,1.17,1.13,0.967,1.09 and 0.835,1.08
O=C1CCCCCCCCCCCCCCO1 [pentadecalactone],0.786,0.773,0.603,0.792,0.55,0.958,1.25,1.34,0.671,0.835
CCCC(=O)O [butyric acid],1.47,0.958,0.988,0.844,1.13,1.46,0.788,0.942,1.17,1.14
C=C(C)C1CC=C(C)C(=O)C1 (centres undefined) [r-carvone],1.1,0.842,0.684,0.707,0.702,0.981,1.18,1.39,1.02,0.956
CC(=O)OCC=C(C)CCC=C(C)C [geranyl acetate],0.917 and 1.35,1.21 and 1.06,0.832,1.03 and 1.16,0.87 and 1.03,2.69,1.01,1.36,1.77 and 1.28,1.45
C=C(C)C1CCC2=CC(=O)CC(C)C2(C)C1 (centres undefined) [amyl laurate],–,–,–,–,–,2.09,–,–,–,–
c1ccc(Oc2ccccc2)cc1 [diphenyl ether],1.44,1.16,0.855,1.28,1.09,0.832,1.21,0.833,1.24,0.939
CC(C)CC(=O)O [isovaleric acid],1.05,0.674,0.882,0.701,0.724,0.982,1.21,1.18,0.928,0.876
CCCCCCCCCCC=O [undecanal],1.02,0.849,0.611,0.933,0.807,0.957,1.08,1.08,1.06,0.987
"CC1CCC(C(C)C)C(O)C1 (single isomer, unassigned; (+)) [(+)-menthol]",0.925,0.936,1.07,1.01,1.14,0.781,0.723,1.64,0.737,3.95
C=CCSCC=C [diallyl sulfide],1.34,1.25,0.875,0.971,1,0.966,1.15,0.999,0.994,0.895
COC(=O)c1ccccc1O [methyl salicylate],1.41,0.832,0.817,0.819,0.835,0.802,0.683,1.01,0.747,0.889
CCCCCCCCCC=O [decyl aldehyde],1.25,1.26,0.972,1.22,1.04,0.998,1.61,1.11,1.24,1.02
c1cnccn1 [pyrazine],0.801,0.797,0.753,0.657,0.644,1.17,1.28,1.21,1.07,1.16
O=C1CCCCC1 [Cyclohexanone],0.317 and 0.597,0.172,0.759,0.366,1.01,–,0.608,0.911,0.38,0.645

SMILES,odorant receptor activation (OR4D1 R54Q clone 1467),odorant receptor activation (OR4D1 clone 1316),odorant receptor activation (OR4D10 clone 1174),odorant receptor activation (OR4D11 clone 1243),odorant receptor activation [1],odorant receptor activation (OR4D5 clone 1122),odorant receptor activation (OR4D6 D96G clone 1225),odorant receptor activation (OR4D9 clone 1217),odorant receptor activation [2],odorant receptor activation (OR4F14 A297T clone 1059)
C=C(C)C1CC=CCC1 (centres undefined) [r-limonene],0.914 and 0.413 and 0.646,–,0.701 and 0.474,–,0.633 and 0.823,0.94,1.33 and 0.695,–,–,1.21 and 2.86
CCCCCCC=O [heptaldehyde],–,–,0.382 and 1.03,–,0.834 and 0.907 and 1.23,1.29,0.426 and 1.06,0.434 and 0.739,–,1.62 and 1.97
CC=Cc1ccc(O)c(OC)c1 [isoeugenol],–,1.27 and 1.38,0.996,1.17 and 1.11,0.758 and 1.68,3.96,1.08,1.07,1.67 and 1.53,2.16
CC1COCc2cc3c(cc21)C(C)(C)C(C)C3(C)C (centres undefined) [galaxolide],–,1.38 and 2.78,0.743,1.16 and 1.07,0.791 and 1.69,0.839 and 1.82,0.864,3.66,3.37 and 5.2,3.07
CC(C)=CCCC(C)=CC=O [citral],1.35,1.25,0.971,1.11,1.28,0.839,0.942,0.978,1.31,1.16
COC(=O)c1ccccc1 [methyl benzoate],0.392 and 0.552,0.332,0.926,0.567,1.53,–,0.703,0.77,0.458,2.43
CC1=NC(C)SC1C (centres undefined),0.838 and 0.607,0.489,1.42,1.65,1.6,–,0.919,1.11,0.644,1.67
C=CCc1ccc(OC)c(OC)c1 [eugenol methyl ether],1.44,1.5,1.22,1.58,1.49,2.02,1.57,1.2,1.85,1.4
CCCCCOC(C)=O [n-amyl acetate],0.351 and 0.482,0.205,0.608,0.473,0.711,1.02,0.627,0.711,0.389,1.74
CCCCCCCCC=O [nonyl aldehyde],1.23,0.957,0.842,0.969,0.981,1.12,0.863,1.04,1.25,0.903
CC12C=CCC1C1CCC3CC(=O)CCC3(C)C1CC2 (centres undefined) [androstenone],1.01,1.26,4.5,1.31,1.16,–,3.32,5.78,1.29,1.85
CC(C)(C)c1ccc(CCC=O)cc1 [bourgeonal],1.06,0.574,0.828,0.695,0.884,–,0.675,0.634,1.02,0.841
C=CCc1ccc(O)c(OC)c1 [eugenol],1.85 and 0.724 and 1.35,2.28 and 1.51,2.8 and 1.34,1.05 and 1.29,2.01 and 1.46,0.884,1.17 and 1.35,1.86 and 1.04,2.5 and 1.25,1.63 and 1.22
CCCCCC(C)=O [2-heptanone],0.736 and 0.357,0.597,1.08,0.598,4.32,–,1.22,1.4,0.836,1
CC(C)CCC(=O)O [4-methylvaleric acid],0.866,1.09,1.02,1.4,1.27,0.974,0.716,0.99,1.31,2.42
CC(C)(O)CCCC1=CCC(C=O)CC1 (centres undefined) [lyral],–,–,–,–,–,1.11,–,–,–,–
CC(=O)c1ccccc1 [acetophenone],0.813 and 0.402,0.987,1.35,0.709,1.61,–,0.95,1.04,0.784,1.27
CC(=O)C(C)=O [diacetyl],1.54,1.28,0.991,1.14,1.17,1.01,1.17,1,0.927,1.04
CC12C=CCC1C1CCC3=CC(=O)CCC3(C)C1CC2 (centres undefined) [androstadienone],1.15 and 1.2,1.09 and 0.783,0.907,1.07 and 0.965,0.986 and 1.26,–,0.993,0.804,1.29 and 1.22,2.85
